These are yes or no findings as the source states them, for the method shown. Binding seen in cells or lysates may run through a third protein. Here binding means that the protein was enriched with, or labelled near, the bait; the list need not be complete. Sequences can lack the tags named with a protein.
T1: His-Halo-tagged Rex (HTLV-1 Rex) (HTLV-1) (UniProt P0C206)
T1 sequence: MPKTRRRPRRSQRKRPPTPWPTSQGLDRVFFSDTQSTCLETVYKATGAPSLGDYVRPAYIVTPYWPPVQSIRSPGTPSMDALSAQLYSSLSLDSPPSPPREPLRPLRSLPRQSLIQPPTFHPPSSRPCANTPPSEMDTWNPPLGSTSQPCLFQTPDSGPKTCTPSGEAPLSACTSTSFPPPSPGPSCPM

Protein sequences, listed by entry. Tags and fused reporters are not part of them.
UniProt O75643: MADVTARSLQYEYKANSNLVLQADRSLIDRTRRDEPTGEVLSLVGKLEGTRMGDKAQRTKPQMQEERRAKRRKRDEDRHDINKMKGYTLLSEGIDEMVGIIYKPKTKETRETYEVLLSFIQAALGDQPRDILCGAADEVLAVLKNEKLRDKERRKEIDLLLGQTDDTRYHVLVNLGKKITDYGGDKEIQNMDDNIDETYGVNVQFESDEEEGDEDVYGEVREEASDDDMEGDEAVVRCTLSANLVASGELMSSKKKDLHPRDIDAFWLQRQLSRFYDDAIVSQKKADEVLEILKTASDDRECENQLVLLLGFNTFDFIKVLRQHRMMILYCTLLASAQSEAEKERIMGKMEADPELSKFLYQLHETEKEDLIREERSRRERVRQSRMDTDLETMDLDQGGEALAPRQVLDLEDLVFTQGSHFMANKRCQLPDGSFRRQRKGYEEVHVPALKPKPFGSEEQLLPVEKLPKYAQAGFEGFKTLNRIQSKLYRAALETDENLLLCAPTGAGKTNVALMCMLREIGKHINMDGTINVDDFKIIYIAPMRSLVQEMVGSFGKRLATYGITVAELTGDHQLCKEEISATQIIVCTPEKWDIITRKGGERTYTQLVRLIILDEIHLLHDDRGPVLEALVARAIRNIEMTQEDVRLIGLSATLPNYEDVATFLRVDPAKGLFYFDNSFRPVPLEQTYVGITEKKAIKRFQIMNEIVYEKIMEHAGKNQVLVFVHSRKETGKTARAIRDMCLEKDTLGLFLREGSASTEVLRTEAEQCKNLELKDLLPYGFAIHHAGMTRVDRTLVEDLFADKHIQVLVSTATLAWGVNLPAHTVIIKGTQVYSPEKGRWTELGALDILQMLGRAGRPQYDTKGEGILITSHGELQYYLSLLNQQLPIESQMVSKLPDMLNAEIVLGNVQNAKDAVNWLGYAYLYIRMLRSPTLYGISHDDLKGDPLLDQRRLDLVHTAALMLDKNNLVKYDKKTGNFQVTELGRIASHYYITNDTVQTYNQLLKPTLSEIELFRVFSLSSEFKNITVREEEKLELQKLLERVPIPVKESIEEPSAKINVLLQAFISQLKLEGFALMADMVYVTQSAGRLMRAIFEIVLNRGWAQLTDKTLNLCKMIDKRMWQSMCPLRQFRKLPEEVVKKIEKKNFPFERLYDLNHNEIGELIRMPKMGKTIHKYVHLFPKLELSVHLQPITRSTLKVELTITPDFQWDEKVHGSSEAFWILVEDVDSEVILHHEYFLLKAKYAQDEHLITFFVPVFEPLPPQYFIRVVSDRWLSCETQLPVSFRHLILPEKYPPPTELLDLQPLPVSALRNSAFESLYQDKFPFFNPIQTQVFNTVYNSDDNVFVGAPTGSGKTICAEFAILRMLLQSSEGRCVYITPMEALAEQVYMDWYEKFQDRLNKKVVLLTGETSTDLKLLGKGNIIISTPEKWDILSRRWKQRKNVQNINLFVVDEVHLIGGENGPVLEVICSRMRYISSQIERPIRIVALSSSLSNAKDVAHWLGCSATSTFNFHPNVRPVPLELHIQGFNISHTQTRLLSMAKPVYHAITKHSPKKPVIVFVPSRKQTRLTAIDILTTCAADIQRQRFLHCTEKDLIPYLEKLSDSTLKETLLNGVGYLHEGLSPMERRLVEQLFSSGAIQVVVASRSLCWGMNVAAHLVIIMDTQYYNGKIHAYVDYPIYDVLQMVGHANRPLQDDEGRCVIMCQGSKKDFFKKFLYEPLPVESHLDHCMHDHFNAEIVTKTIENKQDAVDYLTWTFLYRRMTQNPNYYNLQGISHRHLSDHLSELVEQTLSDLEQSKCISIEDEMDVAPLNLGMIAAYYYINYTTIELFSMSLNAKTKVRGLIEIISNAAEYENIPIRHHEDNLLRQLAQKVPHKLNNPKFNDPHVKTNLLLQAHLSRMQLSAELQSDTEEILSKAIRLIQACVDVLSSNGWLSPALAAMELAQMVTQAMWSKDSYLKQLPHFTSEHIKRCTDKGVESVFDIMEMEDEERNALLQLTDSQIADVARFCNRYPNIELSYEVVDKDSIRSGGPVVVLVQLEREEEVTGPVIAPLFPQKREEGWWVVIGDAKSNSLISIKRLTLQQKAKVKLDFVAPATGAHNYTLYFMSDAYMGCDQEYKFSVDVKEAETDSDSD

B1: NONO (non-POU domain-containing octamer-binding protein NONO/p54nrb) (protein, UniProt Q15233 1-471)
chain: MQSNKTFNLEKQNHTPRKHHQHHHQQQHHQQQQQQPPPPPIPANGQQASSQNEGLTIDLKNFRKPGEKTFTQRSRLFVGNLPPDITEEEMRKLFEKYGKAGEVFIHKDKGFGFIRLETRTLAEIAKVELDNMPLRGKQLRVRFACHSASLTVRNLPQYVSNELLEEAFSVFGQVERAVVIVDDRGRPSGKGIVEFSGKPAARKALDRCSEGSFLLTTFPRPVTVEPMDQLDDEEGLPEKLVIKNQQFHKEREQPPRFAQPGSFEYEYAMRWKALIEMEKQQQDQVDRNIKEAREKLEMEMEAARHEHQVMLMRQDLMRRQEELRRMEELHNQEVQKRKQLELRQEEERRRREEEMRRQQEEMMRRQQEGFKGTFPDAREQEIRMGQMAMGGAMGINNRGAMPPAPVPAGTPAPPGPATMMPDGTLGLTPPTTERFGQAATMEGIGAIGGTPPAFNRAAPGAEFAPNKRRRY
B2: hnRNPL (protein, UniProt P14866 1-589)
chain: MSRRLLPRAEKRRRRLEQRQQPDEQRRRSGAMVKMAAAGGGGGGGRYYGGGSEGGRAPKRLKTDNAGDQHGGGGGGGGGAGAAGGGGGGENYDDPHKTPASPVVHIRGLIDGVVEADLVEALQEFGPISYVVVMPKKRQALVEFEDVLGACNAVNYAADNQIYIAGHPAFVNYSTSQKISRPGDSDDSRSVNSVLLFTILNPIYSITTDVLYTICNPCGPVQRIVIFRKNGVQAMVEFDSVQSAQRAKASLNGADIYSGCCTLKIEYAKPTRLNVFKNDQDTWDYTNPNLSGQGDPGSNPNKRQRQPPLLGDHPAEYGGPHGGYHSHYHDEGYGPPPPHYEGRRMGPPVGGHRRGPSRYGPQYGHPPPPPPPPEYGPHADSPVLMVYGLDQSKMNCDRVFNVFCLYGNVEKVKFMKSKPGAAMVEMADGYAVDRAITHLNNNFMFGQKLNVCVSKQPAIMPGQSYGLEDGSCSYKDFSESRNNRFSTPEQAAKNRIQHPSNVLHFFNAPLEVTEENFFEICDELGVKRPSSVKVFSGKSERSSSGLLEWESKSDALETLGFLNHYQMKNPNGPYPYTLKLCFSTAQHAS

Molecular target: T1, His-Halo-tagged Rex (HTLV-1 Rex) (HTLV-1)
Assay: affinity purification with mass spectrometry

| Molecule | binding |
| --- | --- |
| snRNAP200 (from UniProt O75643 1-2136) | binds |
| B1 | binds |
| B2 | binds |
